From publication PMC12040169 (PLOS Biology, 2025)
Some of the results follow.

What follows are molecules tested on T1, CTL2-GFP (C. trachomatis L2/434/Bu, GFP-expressing). Settings: bulk GFP, single well; 28.5 h, 10 µM; inhibitor.
T1 construct: L2/434/Bu, GFP-expressing
Design: species or system HeLa; Intracellular C. trachomatis growth in HeLa cells, bulk GFP fluorescence relative to DMSO

Going from `CCCOc1ccc(C(CC(=O)O)NS(=O)(=O)c2ccc(F)cc2)cc1` (stereo not drawn) [CBK287139] to `CCCOc1ccc(S(=O)(=O)NCc2ccncc2)c2ccccc12` [CBK268780], the “% of control remaining” value rises from 100% to 122.728%.

Compared with `COc1ccccc1NC(=S)NCCc1ccc(S(N)(=O)=O)cc1` [CBK266201], `CN(C)S(=O)(=O)NCCc1ccc(S(N)(=O)=O)cc1` [CBK022388] is higher in “% of control remaining” value: 126.701% for the first, 151.987% for the second.

Going from `Cc1cc(COc2nccnc2N2CCN(CCCC#N)CC2)no1` [CBK084198] to `COCCc1noc(CC2CCN(c3ccc(C#N)nc3)CC2)n1` [CBK304094], the “% of control remaining” value falls from 114.407% to 104.751%.

First: Cn1cc(CNC(=O)Nc2cc(C(=O)N3CCOCC3)ccc2Cl)cn1 [CBK307080]
Second: COC(=O)c1ccc(N2CCOCC2)c(NC(=O)COc2ccccc2)c1 [CBK270222]
The “% of control remaining” value of the first is lower: 121.713% for the first, 138.379% for the second.

Compared with `CC(C)n1nccc1NC(=O)CCn1ccnc1-c1ccccc1` [CBK281536], `CC(C)c1cc(C(=O)NC(c2ccccc2)c2ccnn2C)n(C)n1` (stereo not drawn) [CBK282535] is lower in “% of control remaining” value: 136.005% for the first, 111.848% for the second.

Compared with `O=C(O)c1ccc(CSc2nc3ccccc3[nH]2)cc1` [CBK286892], `CC(SCc1ccccc1)C(=O)NC(C)c1ccccc1` (stereo not drawn) [CBK263772] is lower in “% of control remaining” value: 126.397% for the first, 103.691% for the second.

Compared with `O=C(NCc1cccnc1)c1cc(S(=O)(=O)N2CCCC2)c(Cl)cc1Cl` [CBK264455], `CN1CCCN(Cc2ccc3c(c2)c(=O)c(C(=O)NCc2ccc(Cl)cc2)cn3C)CC1` [CBK018019] is higher in “% of control remaining” value: 97.788% for the first, 115.522% for the second.

First: CC(C)(C)c1cc(NC(=O)CN2CCN(c3cccc(Cl)c3)CC2)on1 [CBK304525]
Second: CNc1cc(N2CCN(S(=O)(=O)c3ccc(C)cc3)CC2)ccc1[N+](=O)[O-] [CBK266005]
The “% of control remaining” value of the first is higher: 135.247% for the first, 87.8024% for the second.

First: CC(C)c1nc(NCc2nnc3n2CCC3)nc(N(C)C)n1 [CBK305117]
Second: Cc1cc(C)n(-c2nc(NC(C)(C)C)nc(N3CCOCC3)n2)n1 [CBK269810]
The “% of control remaining” value of the first is higher: 133.708% for the first, 106.222% for the second.

First: COc1ccc(CSCC(N)C(=O)O)cc1Br (stereo not drawn) [CBK264026]
Second: COc1cccc(C(=O)Nc2cnn(CCCC(=O)O)c2)c1 [CBK269879]
The “% of control remaining” value of the first is lower: 119.713% for the first, 126.722% for the second.

First: O=C(N[C@H]1C[C@H]2C(=O)Nc3ccccc3C(=O)N2C1)c1cccnc1 [CBK289356]
Second: CN(C)c1ccc(C(=O)N2CC[C@@H](CC(=O)O)[C@@H](CC3=NCCc4ccccc43)C2)cc1 [CBK289159]
The “% of control remaining” value of the first is lower: 98.8237% for the first, 143.449% for the second.

Compared with `O=C(NCCn1nc2c(cc1=O)CCCCC2)c1ccc(F)cc1` [CBK283279], `CC1CCc2nn(CCNC(=O)Cc3ccccc3F)c(=O)cc2C1` (stereo not drawn) [CBK284482] is higher in “% of control remaining” value: 103.445% for the first, 130.837% for the second.

Going from `CCN(CC)C(=O)c1[nH]c2ccccc2c1NS(=O)(=O)c1c(C)noc1C` [CBK050117] to `CN1CCN(C(=O)c2[nH]c3ccccc3c2NS(=O)(=O)c2cc(F)c(Br)cc2F)CC1` [CBK050051], the “% of control remaining” value falls from 123.925% to 113.924%.

Compared with `COc1ccc2[nH]c([C@H]3CCN(S(C)(=O)=O)C3)nc2c1` [CBK289377], `CN(c1cccc(C#N)c1)C1CCN(c2nc3c(cnn3C)c(=O)[nH]2)C1` (stereo not drawn) [CBK305462] is lower in “% of control remaining” value: 108.922% for the first, 105.303% for the second.

First: O=C(O)C1CCN(Cc2cnnn2-c2ccccc2F)CC1 [CBK287197]
Second: CC(=O)N1CCC(Cn2nc(-c3ccccc3)ccc2=O)CC1 [CBK282405]
The “% of control remaining” value of the first is higher: 132.525% for the first, 101.02% for the second.

Going from `COc1ccccc1CN(CCCn1ccnc1)Cc1ccoc1` [CBK283123] to `c1ccc(-c2nccnc2OCCc2cccs2)cc1` [CBK106673], the “% of control remaining” value falls from 113.824% to 100%.

First: CCC(C)NC1=NC(=O)C(CC(=O)N(C)c2ccccc2)S1 (stereo not drawn) [CBK059110T]
Second: C[C@H](NC1=NC(=O)[C@@](C)(C(C)(C)O)S1)c1ccc(F)cc1 [CBK138436]
The “% of control remaining” value of the first is higher: 118.137% for the first, 91.9967% for the second.

Compared with `CCn1cc(-c2cncn2CCCn2nc(C)cc2C)cn1` [CBK281770], `CCCn1ccnc1CNc1nc(C(C)(C)C)nc2c1cnn2C` [CBK306739] is higher in “% of control remaining” value: 87.9224% for the first, 123.058% for the second.

Going from `Cc1cccc(C(C)CNC(=O)N2CCC(Cc3cnn(C)c3)C2)c1` (stereo not drawn) [CBK305301] to `CC(=O)Nc1cccc(C(=O)N2CCC(OCc3ccccn3)CC2)c1` [CBK307009], the “% of control remaining” value rises from 83.1725% to 138.22%.

Compared with `CC(C)(C)c1ccc(OCC(=O)Nn2cnnc2)cc1` [CBK027576], `CC(C)(C)c1ccc(C(=O)Nc2cnn(CCCC(=O)O)c2)cc1` [CBK269929] is lower in “% of control remaining” value: 148.014% for the first, 114.579% for the second.

Compared with `COCCCOc1cc(NC(C)C)ncn1` [CBK115885], `FC(F)(F)c1cccc(OCCOc2ccccc2)n1` [CBK115835] is higher in “% of control remaining” value: 123.188% for the first, 128.68% for the second.

Compared with `CCS(=O)(=O)N1C[C@H]2CC[C@](O)(c3ccc(C)cc3)[C@H]2C1` [CBK285296], `Cc1ccc(C2(O)CCN(C(=O)CC3CCN(C(=O)CC4CCCCC4)CC3)C2)cc1` (stereo not drawn) [CBK286132] is higher in “% of control remaining” value: 89.9849% for the first, 147.77% for the second.

First: Cc1ccccc1C(=O)NCC(=O)Nc1cc2ccccc2c(Br)n1 [CBK063298]
Second: Cc1cc(SCC(=O)Nc2cccc3ccccc23)nc2c(C)cccc12 [CBK268005]
The “% of control remaining” value of the first is higher: 103.628% for the first, 102.75% for the second.

Compared with `CCCc1c(C(=O)NC2CC2)cnn1-c1ccc(Cl)cc1` [CBK006334], `CN1CCN(C(=O)Cc2csc(-c3ccc(Cl)cc3)n2)CC1` [CBK107301] is higher in “% of control remaining” value: 112.6% for the first, 124.851% for the second.

First: COc1ccc(C(=O)N2CCC3(CCN(CCN4CCCCC4)C3)C2)cc1OC (stereo not drawn) [CBK137113T]
Second: COc1cccc2cc(C(=O)N3CCN(C4CCN(C)CC4)CC3)oc12 [CBK149086]
The “% of control remaining” value of the first is higher: 117.746% for the first, 100% for the second.

Compared with `NC(=O)CN1CC2(CCN(CCS(=O)(=O)c3ccccc3)CC2)c2ccccc21` [CBK126786], `O=C(c1sc2ccccc2c1Cl)N1CCN(CCN2C(=O)c3cccc4cccc(c34)C2=O)CC1` [CBK262557] is lower in “% of control remaining” value: 125.623% for the first, 110.866% for the second.

Compared with `Cc1cc(C(=O)N2CCC(c3nnc(CN(C)C)n3C)CC2)ccc1F` [CBK306748], `Cc1noc2nc(C3CCN(C(=O)C4CC4C)CC3)cc(C(F)F)c12` (stereo not drawn) [CBK285307] is higher in “% of control remaining” value: 100.158% for the first, 127.96% for the second.

First: FC(F)(F)Oc1ccc(-c2c[nH]c([C@@H]3COCCN3Cc3c[nH]cn3)n2)cc1 [CBK289303]
Second: O=c1n(-c2cccc(C(F)(F)F)c2)ccn1S(=O)(=O)c1ccc(N2CCOCC2)nc1 [CBK106590]
The “% of control remaining” value of the first is lower: 72.8026% for the first, 103.817% for the second.

First: CCOC(=O)CN1C(=O)S/C(=C/c2cc(Cl)c(OCC(=O)O)c(Br)c2)C1=O [CBK264614]
Second: Cc1cc2c(cc1S(=O)(=O)NCCOc1cccc(C(=O)O)c1)OCC(=O)N2 [CBK299770]
The “% of control remaining” value of the first is lower: 100% for the first, 173.238% for the second.

Going from `CCOC(=O)c1cnn(C2CCCN(Cc3cnnn3C)C2)c1` (stereo not drawn) [CBK305122] to `N#Cc1cccc(NC(=O)NC[C@H]2C[C@@H]3CC[N@]2C[C@@H]3CN2CCCCC2)c1` [CBK288765], the “% of control remaining” value rises from 103.739% to 145.466%.

Going from `CCCCC(=O)NC(Nc1cc(C)ccn1)(C(F)(F)F)C(F)(F)F` [CBK009331] to `CCN1CCN(C(=O)CCn2c(C(F)F)cc3cccnc32)CC1` [CBK285026], the “% of control remaining” value falls from 154.261% to 142.07%.

Going from `C=C(C)Cn1nc(C)c(CN(C)CCN2CCCCC2)c1C` [CBK282483] to `CC1CCCCN1C(=O)Cn1ncn2c(cc3ccsc32)c1=O` (stereo not drawn) [CBK284201], the “% of control remaining” value falls from 128.352% to 97.1674%.

Compared with `CC(Oc1cccc(Cl)c1)C(=O)Nc1ncccn1` (stereo not drawn) [CBK265450], `Cc1ccc(C(C)C)c(OC(=O)c2ccc3nccnc3c2)c1` [CBK269114] is higher in “% of control remaining” value: 100% for the first, 124.274% for the second.

First: Cc1ccc(C)c(-c2csc(NS(=O)(=O)c3cccc(C(=O)O)c3)n2)c1 [CBK296696]
Second: O=C(Nc1ccc(Cl)c(C(=O)O)c1)c1cccc(-n2cnnc2)c1 [CBK270016]
The “% of control remaining” value of the first is lower: 129.444% for the first, 168.83% for the second.

Going from `CC12CN3CC(C)(CN(C1)C3c1ccc(O)cc1)C2O` (stereo not drawn) [CBK262663] to `O=C(O)CC1CCC2(CC1)Cc1ccccc1C2` [CBK012397], the “% of control remaining” value rises from 104.653% to 115.728%.

First: Cc1ccccc1-c1noc(CSc2nnc(-c3ccncc3)n2-c2ccc(F)cc2)n1 [CBK269089]
Second: CCNC(=O)c1cnc(-c2ccc(F)cc2)c(-c2ccncc2)c1 [CBK037477]
The “% of control remaining” value of the first is lower: 108.415% for the first, 196.191% for the second.

First: O=C1CCC(=O)N1CCn1c(=O)n(C(=O)CCCOc2ccc(Cl)cc2)c2ccccc21 [CBK106496]
Second: O=C(COc1ccc(-c2ccccc2)cc1)N1CCN(S(=O)(=O)c2ccc([N+](=O)[O-])cc2)CC1 [CBK264297]
The “% of control remaining” value of the first is higher: 166.967% for the first, 100% for the second.

Compared with `Cc1ccc(NC(=O)CSc2nc3[nH]ncc3c(=O)[nH]2)cc1` [CBK287675], `O=[N+]([O-])c1ccc(CN2CCC(Oc3nccnc3OCC3COc4ccccc4O3)CC2)cc1` (stereo not drawn) [CBK082984T] is lower in “% of control remaining” value: 119.739% for the first, 106.78% for the second.

Going from `O=[N+]([O-])c1ccc(N2CCN(S(=O)(=O)c3ccc4ccccc4c3)CC2)c(C(F)(F)F)c1` [CBK264827] to `Cc1cc(C)n(-c2ccc(N3CCC4(CC3)OCCO4)nn2)n1` [CBK305255], the “% of control remaining” value rises from 124.261% to 144.772%.
